Test results reported in PubChem BioAssay AID220 (DTP/NCI, 2004).
The list does not hold the whole screen: it is rich in T/C values a quarter to a half above the control, in often repeated tests (any T/C) and in doses without a T/C. Other doses and runs of a compound stand elsewhere. T/C: endpoint of the treated group in % of that of the vehicle group. Schedules are NCI's codes, read here as Q, the interval in days (D) or hours (H), X, the number of doses. Some T/C values are followed by the survivors on the day toxicity was checked, most often the fifth; without a count, all were alive then. Some entries hold several experiments; their values stand side by side, smallest first. Additions like (4×) give the number of equal values in this list. Some T/C values are negative: the treated tumours shrank. Some doses have a count of surviving animals in place of a T/C: the source holds a T/C of zero for them, seemingly a mark for toxic or unscored doses. Survivors were counted at the toxicity check, usually on the fifth day, unless a day is given; later deaths do not show.

System: CD8F1 mice, subcutaneous mammary adenocarcinoma, T/C%
Assay: NCI In Vivo Anticancer Drug Screen. Data for tumor model Mammary Adenocarcinoma CD8F1 (subcutaneous) in CD8F1
Settings: higher T/C = larger tumour
Method in brief: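 Tumor-bearing mice, transplantable model; readout survival or tumor size; value = treated (T) / vehicle control (C).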

For `COc1cccc2c1C(=O)c1c(O)c3c(c(O)c1C2=O)C[C@@](O)(C(=O)CO)C[C@@H]3OC1CC(N)C(O)C(C)O1` (some centres not stated), the T/C (T/C endpoint: mean tumor weight, dose: 1.0 mg/kg/injection, schedule: Q07DX006 (ip), vehicle: saline, evaluated on day 50) was 144 % of control, the T/C (T/C endpoint: median tumor weight (est.), dose: 0.5 mg/kg/injection, schedule: Q07DX005 (ip), vehicle: saline, evaluated on day 30) was 53, 70, 71, 92 [8 of 9 alive], 97 % of control and the T/C (T/C endpoint: median tumor weight (est.), dose: 0.5 mg/kg/injection, schedule: Q07DX005 (ip), vehicle: saline, evaluated on day 32) was 67 % of control. For the same compound, the T/C (T/C endpoint: median tumor weight (est.), dose: 0.5 mg/kg/injection, schedule: Q07DX005 (ip), vehicle: saline, evaluated on day 34) was 113 % of control, the T/C (T/C endpoint: median tumor weight (est.), dose: 0.5 mg/kg/injection, schedule: Q07DX005 (ip), vehicle: water, evaluated on day 30) was 32, 46, 76, 82, 113 % of control [9 of 10 alive] and the T/C (T/C endpoint: median tumor weight (est.), dose: 1.0 mg/kg/injection, schedule: Q07DX005 (ip), vehicle: saline, evaluated on day 30) was 20, 52, 89, 92, 139 % of control. The T/C (T/C endpoint: median tumor weight (est.), dose: 1.0 mg/kg/injection, schedule: Q07DX005 (ip), vehicle: saline, evaluated on day 32) was 111 % of control, the T/C (T/C endpoint: median tumor weight (est.), dose: 1.0 mg/kg/injection, schedule: Q07DX005 (ip), vehicle: saline, evaluated on day 34) was 37 % of control [9 of 10 alive] and the T/C (T/C endpoint: median tumor weight (est.), dose: 1.0 mg/kg/injection, schedule: Q07DX005 (ip), vehicle: water, evaluated on day 30) was 23, 48, 57 (2×), 78 % of control. For the same compound, the T/C (T/C endpoint: median tumor weight (est.), dose: 2.0 mg/kg/injection, schedule: Q07DX005 (ip), vehicle: saline, evaluated on day 30) was 16, 31 (2×), 36, 63 % of control, the T/C (T/C endpoint: median tumor weight (est.), dose: 2.0 mg/kg/injection, schedule: Q07DX005 (ip), vehicle: saline, evaluated on day 32) was 70 % of control and the T/C (T/C endpoint: median tumor weight (est.), dose: 2.0 mg/kg/injection, schedule: Q07DX005 (ip), vehicle: saline, evaluated on day 34) was 16 % of control. For the same compound, the T/C (T/C endpoint: median tumor weight (est.), dose: 2.0 mg/kg/injection, schedule: Q07DX005 (ip), vehicle: water, evaluated on day 30) was 20, 31 [9 of 10 alive], 40, 57, 61 % of control, the T/C (T/C endpoint: median tumor weight (est.), dose: 4.0 mg/kg/injection, schedule: Q07DX005 (ip), vehicle: saline, evaluated on day 30) was 11, 21, 36 % of control and the T/C (T/C endpoint: median tumor weight (est.), dose: 4.0 mg/kg/injection, schedule: Q07DX005 (ip), vehicle: saline, evaluated on day 32) was 11 % of control. For the same compound, the survivor count (T/C endpoint: median tumor weight (est.), dose: 4.0 mg/kg/injection, schedule: Q07DX005 (ip), vehicle: saline) was 6 of 10 on day 30, the T/C (T/C endpoint: median tumor weight (est.), dose: 4.0 mg/kg/injection, schedule: Q07DX005 (ip), vehicle: water, evaluated on day 30) was 14, 19 [9 of 10 alive], 27, 59 % of control [9 of 10 alive] and the survivor count (T/C endpoint: median tumor weight (est.), dose: 4.0 mg/kg/injection, schedule: Q07DX005 (ip), vehicle: water) was 1 of 10. For the same compound, the survivor count (T/C endpoint: median tumor weight (est.), dose: 5.0 mg/kg/injection, schedule: Q07DX005 (ip), vehicle: saline) was 1 of 10 on day 30, the survivor count (T/C endpoint: median tumor weight (est.), dose: 6.0 mg/kg/injection, schedule: Q07DX005 (ip), vehicle: saline) was 2 of 10 on day 30 and the survivor count (T/C endpoint: median tumor weight (est.), dose: 8.0 mg/kg/injection, schedule: Q07DX005 (ip), vehicle: saline) was 0 of 10 on day 30 and 2 of 10 on day 30. For the same compound, the survivor count (T/C endpoint: median tumor weight (est.), dose: 10.0 mg/kg/injection, schedule: Q07DX005 (ip), vehicle: saline) was 0 of 10 on day 30, the survivor count (T/C endpoint: median tumor weight (est.), dose: 16.0 mg/kg/injection, schedule: Q07DX005 (ip), vehicle: saline) was 0 of 10 on day 30 and the survivor count (T/C endpoint: median tumor weight (est.), dose: 16.0 mg/kg/injection, schedule: Q07DX005 (ip), vehicle: water) was 0 of 10 on day 30. For the same compound, the survivor count (T/C endpoint: median tumor weight (est.), dose: 20.0 mg/kg/injection, schedule: Q07DX005 (ip), vehicle: saline) was 0 of 10 on day 30, the survivor count (T/C endpoint: median tumor weight (est.), dose: 32.0 mg/kg/injection, schedule: Q07DX005 (ip), vehicle: water) was 0 of 10 on day 30 and the survivor count (T/C endpoint: median tumor weight (est.), dose: 40.0 mg/kg/injection, schedule: Q07DX005 (ip), vehicle: saline) was 0 of 10 on day 30. The T/C (T/C endpoint: median tumor weight change, dose: 4.4 mg/kg/injection, schedule: Q01DX001 (ip), vehicle: saline, evaluated on day 30) was 63 % of control, the T/C (T/C endpoint: median tumor weight change, dose: 4.4 mg/kg/injection, schedule: Q01DX001 (ip), vehicle: saline, evaluated on day 33) was 8 and 35 % of control and the T/C (T/C endpoint: median tumor weight change, dose: 4.4 mg/kg/injection, schedule: Q01DX001 (ip), vehicle: saline, evaluated on day 35) was 91 % of control. For the same compound, the T/C (T/C endpoint: median tumor weight change, dose: 6.7 mg/kg/injection, schedule: Q01DX001 (ip), vehicle: saline, evaluated on day 30) was 49 % of control, the T/C (T/C endpoint: median tumor weight change, dose: 6.7 mg/kg/injection, schedule: Q01DX001 (ip), vehicle: saline, evaluated on day 33) was -1 and 16 % of control and the T/C (T/C endpoint: median tumor weight change, dose: 6.7 mg/kg/injection, schedule: Q01DX001 (ip), vehicle: saline, evaluated on day 35) was 78 % of control. For the same compound, the T/C (T/C endpoint: median tumor weight change, dose: 10.0 mg/kg/injection, schedule: Q01DX001 (ip), vehicle: saline, evaluated on day 30) was 32 % of control, the T/C (T/C endpoint: median tumor weight change, dose: 10.0 mg/kg/injection, schedule: Q01DX001 (ip), vehicle: saline, evaluated on day 33) was -32 % of control (2×) and the T/C (T/C endpoint: median tumor weight change, dose: 10.0 mg/kg/injection, schedule: Q01DX001 (ip), vehicle: saline, evaluated on day 35) was 52 % of control [9 of 10 alive on day 33]. The T/C (T/C endpoint: median tumor weight change, dose: 15.0 mg/kg/injection, schedule: Q01DX001 (ip), vehicle: saline, evaluated on day 27) was 13 % of control [7 of 10 alive on day 27], the T/C (T/C endpoint: median tumor weight change, dose: 15.0 mg/kg/injection, schedule: Q01DX001 (ip), vehicle: saline, evaluated on day 30) was -40 % of control [9 of 10 alive on day 27] and the T/C (T/C endpoint: median tumor weight change, dose: 15.0 mg/kg/injection, schedule: Q01DX001 (ip), vehicle: saline, evaluated on day 33) was -66 and -65 % of control. The survivor count (T/C endpoint: median tumor weight change, dose: 15.0 mg/kg/injection, schedule: Q01DX001 (ip), vehicle: saline) was 6 of 10 on day 33 and the survivor count (T/C endpoint: median tumor weight change, dose: 30.0 mg/kg/injection, schedule: Q01DX001 (ip), vehicle: saline) was 1 of 10 on day 27.
In the case of `C[CH2][Ge]([CH2]C)[CH2]C.C[CH2][Ge]([CH2]C)[CH2]C.C[CH2][Ge]([CH2]C)[O][Ge]([CH2]C)[CH2]C`, the T/C (T/C endpoint: median tumor weight change, dose: 125.0 mg/kg/injection, schedule: Q01DX001 (ip), vehicle: saline with Tween-80, evaluated on day 28) is reported as 130 % of control, the survivor count (T/C endpoint: median tumor weight change, dose: 500.0 mg/kg/injection, schedule: Q01DX001 (ip), vehicle: saline with Tween-80) is reported as 6 of 10 on day 35 and the survivor count (T/C endpoint: median tumor weight change, dose: 1000.0 mg/kg/injection, schedule: Q01DX001 (ip), vehicle: saline with Tween-80) is reported as 1 of 10 on day 28 and 6 of 10 on day 35. For the same compound, the survivor count (T/C endpoint: median tumor weight change, dose: 2000.0 mg/kg/injection, schedule: Q01DX001 (ip), vehicle: saline with Tween-80) was 0 of 10 on day 28 and 3 of 10 on day 35.
With `NC(=O)c1cn(C2OC(CO)C(O)C2O)c2ncnc(N)c12` (configuration not stated) the survivor count (T/C endpoint: median tumor weight (est.), dose: 0.5 mg/kg/injection, schedule: Q07DX005 (ip), vehicle: suspension in saline) was 5 of 10 on day 30, the T/C (T/C endpoint: median tumor weight (est.), dose: 1.0 mg/kg/injection, schedule: Q07DX005 (ip), vehicle: suspension in saline, evaluated on day 30) was 126 % of control and the survivor count (T/C endpoint: median tumor weight (est.), dose: 8.0 mg/kg/injection, schedule: Q07DX005 (ip), vehicle: suspension in saline) was 6 of 10 on day 30. The survivor count (T/C endpoint: median tumor weight (est.), dose: 400.0 mg/kg/injection, schedule: Q07DX005 (ip), vehicle: suspension in saline) was 0 of 10 on day 30, the survivor count (T/C endpoint: median tumor weight (est.), dose: 800.0 mg/kg/injection, schedule: Q07DX005 (ip), vehicle: suspension in saline) was 0 of 10 on day 30 and the survivor count (T/C endpoint: median tumor weight (est.), dose: 1600.0 mg/kg/injection, schedule: Q07DX005 (ip), vehicle: suspension in saline) was 0 of 10 on day 30. The survivor count (T/C endpoint: median tumor weight change, dose: 10.0 mg/kg/injection, schedule: Q01DX001 (ip), vehicle: suspension in saline) was 0 of 10 on day 27 and the survivor count (T/C endpoint: median tumor weight change, dose: 20.0 mg/kg/injection, schedule: Q01DX001 (ip), vehicle: suspension in saline) was 0 of 10 on day 27.
`CC12CC(C(=O)O)C3(O)CC(C)(C1)CC(C)(C2)C3` (configuration not stated) (tested in a mixture with another compound) was tested, and the T/C (T/C endpoint: median tumor weight (est.), dose: 100.0 mg/kg/injection, schedule: Q07DX005 (ip), vehicle: Klucel (hydroxypropylcellulose) (HPC), evaluated on day 30) was 125 % of control.
In the case of `CCCCCc1cc(/C=C2/N=C(c3ccc[nH]3)C=C2OC)[nH]c1C`, the T/C (T/C endpoint: median tumor weight (est.), dose: 2.0 mg/kg/injection, schedule: Q07DX005 (ip), vehicle: suspension in saline, evaluated on day 30) is reported as 140 % of control and the survivor count (T/C endpoint: median tumor weight (est.), dose: 16.0 mg/kg/injection, schedule: Q07DX005 (ip), vehicle: suspension in saline) is reported as 6 of 10 on day 30.
`N#CC(OC1OC(COC2OC(CO)C(O)C(O)C2O)C(O)C(O)C1O)c1ccccc1` (configuration not stated) was tested, and the survivor count (T/C endpoint: median tumor weight (est.), dose: 1600.0 mg/kg/injection, schedule: Q07DX005 (ip), vehicle: water) was 6 of 10 on day 30.
